# Laboratory results published in US6407125B1, “Pharmacological agent and method of treatment” (Novactyl, Inc., priority 1995, dated 2002).
# Entries after “also recorded” stand apart in the source; their conditions may differ. For at least one compound, name, drawing or mass did not settle the structure.
# Tests used:
# recombinant MPS-1 = recombinant MPS-1 (Homo sapiens, UniProt P42677); experiment: Gel shift assay of zinc dependent binding of recombinant MPS-1 to DNA; 65Zn removal from MPS-1; format: biochemical
# Source text: MPS-1 is a ubiquitous tumor marker and cell growth stimulator and is described in detail in the inventor's U.S. Pat. No. Re.35,585 (U.S. Pat. No. 5,243,041). MPS-1 has one zinc finger domain of the type CCCC. […] This is detected by a change in the electrophoretic mobility of MPS-1 under non-denaturing conditions. These experiments indicate that picolinic acid and derivatives should remove zinc and denature various types of zinc finger or zinc ring proteins, whether known or heretofore undiscovered, including viral proteins such as nucleocapsid p7 proteins, as will be explained further. Furthermore, the inventor has determined that any chemical compound, whether known or heretofore undiscovered, that will remove the zinc (or other metal) and denature the proteins or that will form a ternary complex (protein-zinc-chelator) can be effective as a therapeutic agent or as an autologous immune response modulator, as will be discussed in greater detail below.
# WI-38 cells = experiment: Growth of WI-38 cells (total cell protein, cell number); format: cell-based
# Experimental: (§1) Cells were plated at 1.5×10^5 cells/60-mm dish; 48 hours later, the medium was removed, and new media with or without 3 mM picolinic acid was added. Total cell protein was determined at the indicated times; each point is the average of triplicate measurements from 2 cultures.
# (§2) In initial experiments to examine the effects of fusaric acid on cell growth and viability, WI-38 and LoVo cells were incubated for 24 to 72 hours in medium with or without various doses of fusaric acid (0.1-1 mM). The growth of both WI-38 and LoVo cells was inhibited by 500 μM fusaric acid in a time and dose dependent manner, as shown below in Table 2.
# LoVo cells = experiment: Growth of LoVo cells (total cell protein, cell number, DNA synthesis); format: cell-based, human
# Experimental: as §1, §2
# After 30 hours of treatment with 500 μM fusaric acid, there was a prominent decrease in cell number. DNA synthesis was completely (100%) inhibited by 24 hours. When treated with 500 μM fusaric acid, the majority of the LoVo cells acquired a rounded morphology by 48 hours.
# However, after 100 hours, an increase in cell number was noted after 25 additional hours.
# [1] = system: human breast adenocarcinoma MDA-468 cell; experiment: Growth of MDA-468 cells (cell number, DNA synthesis); format: cell-based; details: 500 μM fusaric acid
# Experimental: After 12-24 hours of treatment with 500 μM fusaric acid, there was no further increase in cell number. […] These floating cells were not viable. Within 30 hours of treatment there was a 65% decrease in cell number. […] After 96 hours, less than 10% of the original population remained attached to the dish and no change in cell number was noted after one additional week.
# [2] = system: cells with high levels of P170 protein; experiment: Effect on cells with increased P-glycoprotein (P170); format: cell-based
# [3] = system: Kirsten (K) sarcoma retrovirus-transformed NRK cells; experiment: Retroviral mRNA expression in K-NRK cells; format: cell-based; details: preliminary experiments
structure (smiles),measurement,setting,value
CCCCc1ccc(C(=O)O)nc1 [fusaric acid],removal of radioactive 65Zn from MPS-1,"recombinant MPS-1; CCCC zinc finger, change in electrophoretic mobility, non-denaturing conditions",remove radioactive 65Zn from MPS-1
same,zinc dependent binding of recombinant MPS-1 to DNA,recombinant MPS-1; gel shift assays,inhibit the zinc dependent binding of recombinant MPS-1 to DNA
same,growth of WI-38 cells,WI-38 cells; 500 μM fusaric acid,inhibited; also recorded: strongly inhibited
same,"rate of cell growth, WI-38",WI-38 cells; 1 mM fusaric acid,pronounced decrease in the rate of cell growth
same,growth of LoVo cells,LoVo cells; 500 μM fusaric acid,inhibited
same,"rate of cell growth, LoVo",LoVo cells; 1 mM fusaric acid,pronounced decrease in the rate of cell growth
same,growth of MDA-468 cells,[1],rapidly inhibited
same,growth of cells with high levels of P170 protein,[2],effective in controlling growth of cells with high levels of P170 protein
same,induction of P170 protein,[2],does not induce P170 protein
same,expression of retroviral mRNA levels,[3],reduces the expression of retroviral mRNA levels
